From paper PMC5043349
Where two headings read alike, the source gives them in different places. Results are given in words; binding and its absence hold for the method and conditions named. In cells and extracts the contact can be indirect. Some results given as binding are weak or reduced against the parent protein; the word gives no strength. Each block holds one molecule with its values, some of them ahead of it.

Chains of the proteins cited; added tags and fusions are not shown.
UniProt Q15797: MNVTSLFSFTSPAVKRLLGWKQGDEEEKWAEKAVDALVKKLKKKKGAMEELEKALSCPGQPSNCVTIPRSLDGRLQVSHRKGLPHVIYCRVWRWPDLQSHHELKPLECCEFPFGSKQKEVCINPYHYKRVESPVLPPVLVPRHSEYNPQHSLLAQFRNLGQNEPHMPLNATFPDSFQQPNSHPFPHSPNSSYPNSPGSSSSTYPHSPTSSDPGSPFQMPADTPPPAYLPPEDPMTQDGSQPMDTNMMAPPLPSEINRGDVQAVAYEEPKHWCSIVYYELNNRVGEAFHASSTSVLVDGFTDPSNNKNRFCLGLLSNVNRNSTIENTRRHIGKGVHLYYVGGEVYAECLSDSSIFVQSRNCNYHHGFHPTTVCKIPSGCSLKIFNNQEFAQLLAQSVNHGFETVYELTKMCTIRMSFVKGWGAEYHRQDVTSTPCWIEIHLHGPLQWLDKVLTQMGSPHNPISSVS
UniProt Q13485: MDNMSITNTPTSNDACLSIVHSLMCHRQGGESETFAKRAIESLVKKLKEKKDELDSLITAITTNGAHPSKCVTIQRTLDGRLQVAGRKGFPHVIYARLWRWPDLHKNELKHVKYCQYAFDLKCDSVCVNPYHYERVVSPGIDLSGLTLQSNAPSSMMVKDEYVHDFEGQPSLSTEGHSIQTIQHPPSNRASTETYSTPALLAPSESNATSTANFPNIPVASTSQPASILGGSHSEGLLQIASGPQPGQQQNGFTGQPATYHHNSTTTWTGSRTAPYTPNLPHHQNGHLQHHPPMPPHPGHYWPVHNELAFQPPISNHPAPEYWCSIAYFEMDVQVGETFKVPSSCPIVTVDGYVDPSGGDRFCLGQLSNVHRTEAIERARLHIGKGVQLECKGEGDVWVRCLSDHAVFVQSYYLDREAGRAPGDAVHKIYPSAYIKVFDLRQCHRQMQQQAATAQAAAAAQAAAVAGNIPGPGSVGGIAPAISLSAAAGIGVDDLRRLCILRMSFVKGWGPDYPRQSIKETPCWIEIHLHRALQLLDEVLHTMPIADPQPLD

How the values were obtained:
[1] = molecular target: SMAD1, endogenous in HepG2 cells (human (endogenous in HepG2)) (UniProt Q15797); test: co-IP; endogenous proteins in HepG2 cells treated with BMP6 (20 nM) or metformin (2 mM) for 24 h; Western blot; which protein was precipitated is not told
[2] = molecular target: SMAD1, endogenous in HepG2 cells (human (endogenous in HepG2)) (UniProt Q15797); test: as above; remark: listed apart in the source

- binding [1]: binds
Molecule: SMAD4, endogenous in HepG2 cells (from UniProt Q13485 1-552)

- binding [2]: binds
B1: SHP, endogenous in HepG2 cells (protein, UniProt Q15466 1-257)
chain: MSTSQPGACPCQGAASRPAILYALLSSSLKAVPRPRSRCLCRQHRPVQLCAPHRTCREALDVLAKTVAFLRNLPSFWQLPPQDQRRLLQGCWGPLFLLGLAQDAVTFEVAEAPVPSILKKILLEEPSSSGGSGQLPDRPQPSLAAVQWLQCCLESFWSLELSPKEYACLKGTILFNPDVPGLQAASHIGHLQQEAHWVLCEVLEPWCPAAQGRLTRVLLTASTLKSIPTSLLGDLFFRPIIGDVDIAGLLGDMLLLR
